The source of these data is article PMC10758104.

Results are given in words; binding and its absence hold for the method and conditions named. In cells and extracts the contact can be indirect. Some binding calls cover weakened binding; strength is not graded here. Where a sequence is shown, tags or fusion partners need not be part of it.

For experiment [1], the target named is T1, SLC40A1 (Flag-tagged, overexpressed in cardiomyocytes of Slc40a1 transgenic mice) (UniProt Q9JHI9).
T1 sequence: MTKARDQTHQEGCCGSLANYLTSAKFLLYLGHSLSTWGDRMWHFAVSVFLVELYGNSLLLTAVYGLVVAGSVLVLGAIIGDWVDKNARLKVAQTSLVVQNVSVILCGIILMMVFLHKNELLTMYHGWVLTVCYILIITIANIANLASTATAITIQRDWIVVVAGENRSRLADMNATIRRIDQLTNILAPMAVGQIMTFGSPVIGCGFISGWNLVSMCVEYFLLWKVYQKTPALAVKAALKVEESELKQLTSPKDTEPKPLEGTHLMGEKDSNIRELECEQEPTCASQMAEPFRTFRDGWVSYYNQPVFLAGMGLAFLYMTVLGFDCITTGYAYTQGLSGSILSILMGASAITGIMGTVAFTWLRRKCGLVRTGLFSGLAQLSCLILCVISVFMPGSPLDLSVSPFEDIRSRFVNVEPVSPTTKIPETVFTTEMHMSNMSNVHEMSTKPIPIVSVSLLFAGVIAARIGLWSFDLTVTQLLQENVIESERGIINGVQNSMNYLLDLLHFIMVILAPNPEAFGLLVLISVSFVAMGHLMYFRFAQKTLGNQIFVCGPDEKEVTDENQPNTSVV
Nature of the experiment: co-IP; fresh mouse hearts homogenized and lysed; immunoprecipitation with Flag or Steap4 antibody overnight at 4 °C, protein A/G magnetic beads; immunoblot with Flag or Steap4 antibody. On the technique in general: In western blotting, separated proteins are transferred to a membrane and probed.

Another experiment concerns the target T2, SLC40A1-ECFP (UniProt Q9JHI9).
T2 sequence: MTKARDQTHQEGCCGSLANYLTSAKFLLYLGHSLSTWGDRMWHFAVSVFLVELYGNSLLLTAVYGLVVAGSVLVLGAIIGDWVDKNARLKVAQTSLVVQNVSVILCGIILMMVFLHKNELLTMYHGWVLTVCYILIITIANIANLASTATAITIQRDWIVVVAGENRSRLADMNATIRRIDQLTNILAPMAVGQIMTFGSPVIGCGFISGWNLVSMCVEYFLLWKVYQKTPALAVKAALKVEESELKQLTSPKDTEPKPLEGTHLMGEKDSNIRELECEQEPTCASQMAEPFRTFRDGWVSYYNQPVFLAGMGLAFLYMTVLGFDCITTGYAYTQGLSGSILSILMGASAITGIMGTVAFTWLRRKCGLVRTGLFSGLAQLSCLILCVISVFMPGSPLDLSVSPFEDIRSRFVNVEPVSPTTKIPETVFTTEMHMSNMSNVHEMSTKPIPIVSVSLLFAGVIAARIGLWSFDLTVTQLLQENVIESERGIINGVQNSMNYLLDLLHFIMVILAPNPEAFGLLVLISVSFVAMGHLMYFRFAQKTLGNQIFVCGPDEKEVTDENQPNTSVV
Nature of the experiment: FRET or BRET; SLC40A1-ECFP (donor) and Steap4-EYFP (acceptor) co-transfected in 293T cells; confocal microscopy, normalized FRET.

B1: Steap4 (six transmembrane epithelial antigen of prostate 4) (protein, UniProt Q923B6 1-470)
chain: MEKAHADEFPLTTDSSEKQGVVCIFGTGDFGKSLGLKMLQCGYSIVFGSRNPQVSSLLPRGAEVLSYSEAASKSDIIILAMHREHYDSLTELVDYLKGKVLVDVSNNRKINQYPESNAEYLAQLEPGAHVVKAFNTISAWALQSGTLDASRQVFVCGNDSKAKQRVMDIARTLGLTPLDQGSLMAASEIENYPLQLFPMWRFPFYLSSVLCVFFFVYCAIREVIYPYVNGKTDATYRLAISIPNRVFPITALILLALVYLPGILAAILQLYRGTKYRRFPNWLDHWMLCRKQLGLVALGFAFLHVIYTLVIPIRYYVRWRLRNATITQALTNKDSPFITSYAWINDSYLALGILGFFLFLLLGITSLPSVSNMVNWREFRFVQSKLGYLTLVLCTAHTLVYGGKRFLSPSILRWSLPSAYILALVIPCAVLVLKCILIMPCIDKTLTRIRQGWERNSKYTQSALNGKSDI
Consider B1, for which, in experiment [1], the binding result was “binds”.

B2: Steap4-EYFP (protein, UniProt Q923B6 1-470)
chain: MEKAHADEFPLTTDSSEKQGVVCIFGTGDFGKSLGLKMLQCGYSIVFGSRNPQVSSLLPRGAEVLSYSEAASKSDIIILAMHREHYDSLTELVDYLKGKVLVDVSNNRKINQYPESNAEYLAQLEPGAHVVKAFNTISAWALQSGTLDASRQVFVCGNDSKAKQRVMDIARTLGLTPLDQGSLMAASEIENYPLQLFPMWRFPFYLSSVLCVFFFVYCAIREVIYPYVNGKTDATYRLAISIPNRVFPITALILLALVYLPGILAAILQLYRGTKYRRFPNWLDHWMLCRKQLGLVALGFAFLHVIYTLVIPIRYYVRWRLRNATITQALTNKDSPFITSYAWINDSYLALGILGFFLFLLLGITSLPSVSNMVNWREFRFVQSKLGYLTLVLCTAHTLVYGGKRFLSPSILRWSLPSAYILALVIPCAVLVLKCILIMPCIDKTLTRIRQGWERNSKYTQSALNGKSDI
Regarding B2, in the experiment with SLC40A1-ECFP, the binding result is “binds”.
